Reference: patent US20110144312A1
No constants are given. Whether binding was seen depends on the method and setting. For part of these data: Binding can be weak; no strength is given.

What was measured:
[1] = target: chimpanzee IL-10Rα on PBMC (chimpanzee); experiment: flow cytometry on chimpanzee PBMC, lymphocyte gate; competitor: recombinant human IL-10Rα [B]
[2] = target: rat IL-10Rα on splenocytes (rat); experiment: flow cytometry on splenocytes
[3] = target: chimpanzee IL-10Rα on PBMC (chimpanzee); experiment: flow cytometry on chimpanzee PBMC

binding [1]: binds
binding [2]: no binding
binding [3]: binds
B1: 136D29 (antibody, V domains shown)
VH: QVQLVQSGAEVKKPGASVKVSCKVSGFTLTELSMHWVRQAPGKGLEWMGGFDPDDGETIYAQKFQGRVSMTEDTSTDTAYMELSSLRSEDTAVYYCATGGYYGPVGMDVWGQGTTVTVSS
VL: DIQMTQSPSSLSASVGDRVTITCRASQGISIWLAWYQQKPEKAPKSLIYAASSLQSGVPSRFSGSGSGTDFTLTISSLQPEDFATYYCQQYNSYPLTFGGGTKVEIK
